Measured values published in patent US20240140978.
Results from cells or extracts need not show a direct contact. For some assays here: No signal at the amounts used counts as a negative. Construct, isoform or probe ends are uncertain for at least one entry. For some assays here: Protein sequences can lack the tags named with them.

Legend:
Assay in all cases: pull-down
[1] = target: T1, DDX21 (Nucleolar RNA helicase 2) (Homo sapiens) (UniProt Q9NR30); conditions: Ramos cells, affinity purification and MS; may be indirect; protein in an extract; label: biotin; single-stranded DNA
T1 sequence (looked up, limits assumed): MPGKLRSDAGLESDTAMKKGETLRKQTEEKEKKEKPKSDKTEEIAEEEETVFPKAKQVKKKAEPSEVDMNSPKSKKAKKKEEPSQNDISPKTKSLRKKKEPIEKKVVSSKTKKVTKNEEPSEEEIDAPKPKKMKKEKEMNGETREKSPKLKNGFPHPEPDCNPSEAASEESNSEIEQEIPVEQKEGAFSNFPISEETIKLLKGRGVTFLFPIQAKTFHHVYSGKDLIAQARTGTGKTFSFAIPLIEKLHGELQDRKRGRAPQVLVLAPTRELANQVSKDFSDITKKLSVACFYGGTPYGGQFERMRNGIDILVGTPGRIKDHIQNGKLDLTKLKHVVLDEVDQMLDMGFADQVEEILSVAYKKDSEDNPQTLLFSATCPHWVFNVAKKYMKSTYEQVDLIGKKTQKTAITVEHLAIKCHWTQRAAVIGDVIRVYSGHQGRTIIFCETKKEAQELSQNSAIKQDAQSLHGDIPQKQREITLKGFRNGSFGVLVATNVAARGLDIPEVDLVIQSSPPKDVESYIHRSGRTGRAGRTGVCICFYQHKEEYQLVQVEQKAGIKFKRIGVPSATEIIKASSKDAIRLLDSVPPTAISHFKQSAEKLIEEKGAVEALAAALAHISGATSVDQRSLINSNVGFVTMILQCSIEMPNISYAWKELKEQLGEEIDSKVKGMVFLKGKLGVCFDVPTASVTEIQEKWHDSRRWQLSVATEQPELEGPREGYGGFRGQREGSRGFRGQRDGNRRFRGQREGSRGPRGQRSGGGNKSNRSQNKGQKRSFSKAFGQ

[2] = target: T2, Fibrillarin (FBL) (Homo sapiens) (UniProt P22087); conditions: Ramos cells, affinity purification and MS; may be indirect; protein in an extract; label: biotin; single-stranded DNA
T2 sequence (looked up, limits assumed): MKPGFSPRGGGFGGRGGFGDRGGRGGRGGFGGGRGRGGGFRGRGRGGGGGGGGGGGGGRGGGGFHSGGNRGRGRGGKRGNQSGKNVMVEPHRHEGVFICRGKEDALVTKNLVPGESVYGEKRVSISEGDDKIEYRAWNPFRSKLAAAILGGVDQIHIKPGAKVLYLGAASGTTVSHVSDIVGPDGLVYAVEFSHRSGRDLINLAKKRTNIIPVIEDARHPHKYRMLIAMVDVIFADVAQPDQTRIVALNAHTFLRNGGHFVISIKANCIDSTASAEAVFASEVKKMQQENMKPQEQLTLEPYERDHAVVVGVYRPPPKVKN

[3] = target: H2AFJ (Histone H2A.J) (Homo sapiens) (UniProt Q9BTM1); conditions: Ramos cells, affinity purification and MS; may be indirect; protein in an extract; label: biotin; single-stranded DNA
[4] = target: HIST1H1B (Histone H1.5) (Homo sapiens) (UniProt P16401); conditions: Ramos cells, affinity purification and MS; may be indirect; protein in an extract; label: biotin; single-stranded DNA
[5] = target: HIST1H1D (Histone H1.3) (Homo sapiens) (UniProt P16402); conditions: Ramos cells, affinity purification and MS; may be indirect; protein in an extract; label: biotin; single-stranded DNA
[6] = target: Histone H4 (HIST1H4A) (Homo sapiens) (UniProt P62805); conditions: Ramos cells, affinity purification and MS; may be indirect; protein in an extract; label: biotin; single-stranded DNA
NONO (Homo sapiens) = NONO (Homo sapiens) (UniProt Q15233); conditions: Ramos cells, affinity purification and MS; may be indirect; protein in an extract; label: biotin; single-stranded DNA
[7] = target: Nucleolin (NCL) (Homo sapiens) (UniProt P19338); conditions: protein in an extract, label: biotin, single-stranded DNA
PARP1 (Homo sapiens) = PARP1 (Homo sapiens) (UniProt P09874); conditions: Ramos cells, affinity purification and MS; may be part of RNP complex; protein in an extract; label: biotin; single-stranded DNA
RPL12 (Homo sapiens) = RPL12 (Homo sapiens) (UniProt P30050); conditions: Ramos cells, affinity purification and MS; may be indirect; protein in an extract; label: biotin; single-stranded DNA
SFPQ (Homo sapiens) = SFPQ (Homo sapiens) (UniProt P23246); conditions: Ramos cells, affinity purification and MS; may be indirect; protein in an extract; label: biotin; single-stranded DNA
SSBP1 (Homo sapiens) = target: T3, SSBP1 (Homo sapiens) (UniProt Q04837); conditions: Ramos cells, affinity purification and MS; may be indirect; protein in an extract; label: biotin; single-stranded DNA
T3 sequence (looked up, limits assumed): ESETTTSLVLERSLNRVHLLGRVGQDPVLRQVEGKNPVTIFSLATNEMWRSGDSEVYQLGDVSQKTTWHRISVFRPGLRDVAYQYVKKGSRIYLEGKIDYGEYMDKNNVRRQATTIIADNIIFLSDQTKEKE

[8] = test system: Complement C1q (subunits A/B/C) (Homo sapiens); conditions: protein in an extract, single-stranded DNA
[9] = listed as anti-C1q oligonucleotide, values not in text

Sequence: CTAACCCCGGGTGTGGTGGGTGGGCAGGGGGGTTAG [10.36 (C10.36)]
- binding result [1]: binds
- binding result [2]: binds
- binding result [3]: binds
- binding result [4]: binds
- binding result [5]: binds
- binding result [6]: binds
- binding result (NONO (Homo sapiens)): binds
- binding result ([7]; Ramos cells, affinity purification and MS, enriched Ramos over Jurkat): binds
- binding result (PARP1 (Homo sapiens)): binds
- binding result (RPL12 (Homo sapiens)): binds
- binding result (SFPQ (Homo sapiens)): binds
- binding result (SSBP1 (Homo sapiens)): binds

Sequence: CTAGCATGACTGCAGTACGTAACCCAATTCACATACACTCTCACCCCCACTAAACACTGTCTCTTATACACATCTGACGCTGCCGACGA [83S-B11 Full]
- binding result [8, 9]: binds

Sequence: CTAGCATGACTGCAGTACGTACTATAGAACAATCCACCGCTTTAAATCAACTATCTTACTGTCTCTTATACACATCTGACGCTGCCGACGA [83s_B1 Full]
- binding result ([8]; anti-C1q oligonucleotide, targets identified by mass spectrometry from plasma): binds

Sequence: CTAGCATGACTGCAGTACGTGATTTTAAAACCCTTGCACCTGATTGTGCCAATCCACTGTCTCTTATACACATCTGACGCTGCCGACGA [83s-B6 Full]
- binding result [8, 9]: binds

Sequence: CTAGCATGACTGCAGTACGTTACCCCTGACAATCCTCGCGCCGAGGCCTCCATCCTGACTGTCTCTTATACACATCTGACGCTGCCGACGA [83S-B4 Full]
- binding result [8, 9]: binds

Sequence: GGTGGTGGTGGTTGTGGTGGTGGTGG [AS1411]
- binding result ([7]; no detectable binding to Ramos or Jurkat cells in affinity purification, immobilized aptamer): no binding
